Laboratory results: the odorant receptor screen of Mainland et al. (2015)
Values joined by “and” are separate entries in the source; they are usually repeats but may differ in a detail not shown here. Identical values can stand only once. The list shows a part of the results. Each value is one well over the wells without odorant, computed here; the data are noisy.

Key:
Assay in all cases: odorant receptor activation (CRE luciferase / Renilla) (fold of no-odor wells); higher = more activation
Settings in all cases: 100 µM
[1] = tested on: OR4M2 clone 1278
[2] = tested on: OR4N2 clone 1270
[3] = tested on: OR4N4 clone 1277
[4] = tested on: OR4N5 clone 1262
[5] = tested on: OR4P4 R231C clone 1398
[6] = tested on: OR4P4 clone 1139
[7] = tested on: OR4Q3 clone 1411
[8] = tested on: OR4S1 clone 1283
[9] = tested on: OR4S2 clone 1175
[10] = tested on: OR4X2 clone 1193

| Compound | odorant receptor activation [1] | odorant receptor activation [2] | odorant receptor activation [3] | odorant receptor activation [4] | odorant receptor activation [5] | odorant receptor activation [6] | odorant receptor activation [7] | odorant receptor activation [8] | odorant receptor activation [9] | odorant receptor activation [10] |
| --- | --- | --- | --- | --- | --- | --- | --- | --- | --- | --- |
| c1ccc(Oc2ccccc2)cc1 [diphenyl ether] | 1.1 | 1.16 | 0.951 | 1.43 | 0.828 | 1.03 | 1.12 | 1.12 | 0.871 | 1.12 |
| CCCCCC(C)=O [2-heptanone] | 0.376 | 1.59 | 0.479 | 1.53 | 0.882 | 1.09 | 1.14 | 0.657 | 1.32 | 1.4 |
| O=CCc1ccccc1 [phenyl acetaldehyde] | 1.49 | 1.4 | 1.48 | 1.11 | 1.27 | 0.987 | 1.52 | 1.06 | 1.2 | 0.936 |
| CC12CCC(C1)C(C)(C)C2=O (stereo not given) [fenchone] | 1.08 | 0.912 | 0.801 | 1.66 | 0.753 | 1.01 | 1.05 | 1.04 | 1.03 | 0.876 |
| CC(=O)c1ccccc1 [acetophenone] | 0.882 | 3.05 | 0.646 | 1.31 | 0.853 | 1.15 | 1.45 | 0.942 | 1.72 | 2.06 |
| COC(=O)c1ccccc1O [methyl salicylate] | 0.784 | 0.893 | 0.96 | 0.766 | 1.05 | 0.922 | 1.25 | 0.739 | 0.808 | 1.13 |
| C=CCSCC=C [diallyl sulfide] | 1.19 | 0.992 | 0.769 | 1.43 | 0.907 | 0.914 | 1.37 | 1.03 | 1.02 | 0.98 |
| CC(C)CCC(=O)O [4-methylvaleric acid] | 1.21 | 1.04 | 0.953 | 1.09 | 1.18 | 0.72 | 0.873 | 1.6 | 1.15 | 1.53 |
| CC12CCC(CC1)C(C)(C)O2 [cineole] | 0.945 | 1.28 | 1.08 | 1.05 | 0.212 | 1 | 0.237 | 0.83 | 0.867 | 0.998 |
| COc1ccccc1O [guaiacol] | 0.93 and 0.806 | 1.19 and 1.2 | 0.842 and 0.874 | 0.964 and 0.752 | 0.679 | 0.645 | 0.767 | 0.779 and 1.14 | 0.968 | 0.685 |
| C=CCc1ccc(OC)c(OC)c1 [eugenol methyl ether] | 1.58 | 2.06 | 1.54 | 2.07 | 1.49 | 1.4 | 1.53 | 1.74 | 1.28 | 1.28 |
| C=CCc1ccc(OC(C)=O)c(OC)c1 [eugenol acetate] | 1.89 | 1.98 | 1.57 | 2.14 | 1.84 | 2.42 | 2.03 | 1.77 | 1.59 | 1.62 |
| CC1CCC(C(C)C)C(O)C1 (single isomer, unassigned; (-)) [(-)-menthol] | 0.838 | 0.608 | 0.87 | 0.691 | 0.959 | 1.26 | 0.765 | 0.677 | 1.12 | 1.51 |
